{"source": "ChEMBL document CHEMBL3885861", "about": "“Open TG-GATES”", "species_on_record": "Rattus norvegicus", "assay": "Open TG-GATES - Regimen: Daily Repeat", "type": "toxicity, organism-based, Sprague-Dawley", "design": "regimen Daily Repeat, gender Male, age 6 weeks", "conditions": "in vivo, po, route gavage; for LIVER: tissue Liver", "key": {"[1]": {"conditions": "20 mg/kg, 72 h, tissue Blood, dose level Low, time 3 day"}, "[2]": {"conditions": "20 mg/kg, […], tissue Blood, dose level Low, time 7 day"}, "[3]": {"conditions": "20 mg/kg, […], tissue Plasma, dose level Low, time 7 day"}, "[4]": {"conditions": "60 mg/kg, […], tissue Blood, dose level Middle, time 7 day"}, "[5]": {"conditions": "60 mg/kg, […], tissue Blood, dose level Middle, time 28 day"}, "[6]": {"conditions": "200 mg/kg, 72 h, tissue Plasma, dose level High, time 3 day"}}}
{"smiles": "CCCCc1oc2ccccc2c1C(=O)c1cc(I)c(OCCN(CC)CC)c(I)c1", "note": "[AMIODARONE]", "values": [{"measurement": "MCH", "setting": "0 mg/kg, 72 h, tissue Blood, dose level Control, time 3 day", "value": 21.4, "unit": "pg"}, {"measurement": "MCHC", "setting": "0 mg/kg, […], tissue Blood, dose level Control, time 7 day", "value": 34.3, "unit": "%"}, {"measurement": "PT", "setting": "0 mg/kg, […], tissue Blood, dose level Control, time 14 day", "value": 12.6, "unit": "s"}, {"measurement": "TC", "setting": "0 mg/kg, […], tissue Plasma, dose level Control, time 14 day", "value": 80.4, "unit": "mg/dL"}, {"measurement": "APTT", "setting": "[1]", "value": 18.4, "unit": "s"}, {"measurement": "MCHC", "setting": "[1]", "value": 34.7, "unit": "%"}, {"measurement": "Hb", "setting": "[2]", "value": 13.3, "unit": "g/dL"}, {"measurement": "PT", "setting": "[2]", "value": 12.5, "unit": "s"}, {"measurement": "MCHC", "setting": "20 mg/kg, […], tissue Blood, dose level Low, time 14 day", "value": 34.5, "unit": "%"}, {"measurement": "Hb", "setting": "20 mg/kg, […], tissue Blood, dose level Low, time 28 day", "value": 15.2, "unit": "g/dL"}, {"measurement": "BUN", "setting": "[3]", "value": 15.2, "unit": "mg/dL"}, {"measurement": "PL", "setting": "[3]", "value": 143, "unit": "mg/dL"}, {"measurement": "AST", "setting": "60 mg/kg, 72 h, tissue Plasma, dose level Middle, time 3 day", "value": 68.6, "unit": "IU/L"}, {"measurement": "Ht", "setting": "[4]", "value": 38.2, "unit": "%"}, {"measurement": "MCV", "setting": "[4]", "value": 61.5, "unit": "fL"}, {"measurement": "PT", "setting": "60 mg/kg, […], tissue Blood, dose level Middle, time 14 day", "value": 12.6, "unit": "s"}, {"measurement": "Hb", "setting": "[5]", "value": 14.7, "unit": "g/dL"}, {"measurement": "PT", "setting": "[5]", "value": 12.5, "unit": "s"}, {"measurement": "LIVER", "setting": "60 mg/kg, […], dose level Middle, time 7 day", "value": 12.9, "unit": "g"}, {"measurement": "ALT", "setting": "[6]", "value": 43.6, "unit": "IU/L"}, {"measurement": "AST", "setting": "[6]", "value": 71.4, "unit": "IU/L"}, {"measurement": "LIVER", "setting": "200 mg/kg, […], dose level High, time 28 day", "value": 11.7, "unit": "g"}, {"measurement": "TG", "setting": "200 mg/kg, […], tissue Plasma, dose level High, time 14 day", "value": 18.8, "unit": "mg/dL"}]}
